One test deals with type I collagen (IC) (UniProt P11087). Briefly: ELISA; solid-phase binding assay: IC, IIC and BSA (0–10 μg/ml) coated on Maxisorp 96-well plates; Fc-fused proteins (5 μg/ml) in TBS, 0.05% Tween20, 2 mM CaCl2, 0.5% BSA, room temperature 2 h; detected with HRP goat anti-human IgG; both purified.
In test [1] the target is bovine serum albumin (BSA) (bovine) (UniProt P02769). Briefly: condition: BSA coated at 0–10 μg/ml; Fc-fused proteins 5 μg/ml; ELISA; solid-phase binding assay: IC, IIC and BSA (0–10 μg/ml) coated on Maxisorp 96-well plates; Fc-fused proteins (5 μg/ml) in TBS, 0.05% Tween20, 2 mM CaCl2, 0.5% BSA, room temperature 2 h; detected with HRP goat anti-human IgG; both purified.

The chains behind the UniProt entries cited, without tags or fusion partners. Where a name states a change or a piece, a line headed by the entry shows the natural chain unless it says otherwise. Residues count along the entry.
UniProt P11087: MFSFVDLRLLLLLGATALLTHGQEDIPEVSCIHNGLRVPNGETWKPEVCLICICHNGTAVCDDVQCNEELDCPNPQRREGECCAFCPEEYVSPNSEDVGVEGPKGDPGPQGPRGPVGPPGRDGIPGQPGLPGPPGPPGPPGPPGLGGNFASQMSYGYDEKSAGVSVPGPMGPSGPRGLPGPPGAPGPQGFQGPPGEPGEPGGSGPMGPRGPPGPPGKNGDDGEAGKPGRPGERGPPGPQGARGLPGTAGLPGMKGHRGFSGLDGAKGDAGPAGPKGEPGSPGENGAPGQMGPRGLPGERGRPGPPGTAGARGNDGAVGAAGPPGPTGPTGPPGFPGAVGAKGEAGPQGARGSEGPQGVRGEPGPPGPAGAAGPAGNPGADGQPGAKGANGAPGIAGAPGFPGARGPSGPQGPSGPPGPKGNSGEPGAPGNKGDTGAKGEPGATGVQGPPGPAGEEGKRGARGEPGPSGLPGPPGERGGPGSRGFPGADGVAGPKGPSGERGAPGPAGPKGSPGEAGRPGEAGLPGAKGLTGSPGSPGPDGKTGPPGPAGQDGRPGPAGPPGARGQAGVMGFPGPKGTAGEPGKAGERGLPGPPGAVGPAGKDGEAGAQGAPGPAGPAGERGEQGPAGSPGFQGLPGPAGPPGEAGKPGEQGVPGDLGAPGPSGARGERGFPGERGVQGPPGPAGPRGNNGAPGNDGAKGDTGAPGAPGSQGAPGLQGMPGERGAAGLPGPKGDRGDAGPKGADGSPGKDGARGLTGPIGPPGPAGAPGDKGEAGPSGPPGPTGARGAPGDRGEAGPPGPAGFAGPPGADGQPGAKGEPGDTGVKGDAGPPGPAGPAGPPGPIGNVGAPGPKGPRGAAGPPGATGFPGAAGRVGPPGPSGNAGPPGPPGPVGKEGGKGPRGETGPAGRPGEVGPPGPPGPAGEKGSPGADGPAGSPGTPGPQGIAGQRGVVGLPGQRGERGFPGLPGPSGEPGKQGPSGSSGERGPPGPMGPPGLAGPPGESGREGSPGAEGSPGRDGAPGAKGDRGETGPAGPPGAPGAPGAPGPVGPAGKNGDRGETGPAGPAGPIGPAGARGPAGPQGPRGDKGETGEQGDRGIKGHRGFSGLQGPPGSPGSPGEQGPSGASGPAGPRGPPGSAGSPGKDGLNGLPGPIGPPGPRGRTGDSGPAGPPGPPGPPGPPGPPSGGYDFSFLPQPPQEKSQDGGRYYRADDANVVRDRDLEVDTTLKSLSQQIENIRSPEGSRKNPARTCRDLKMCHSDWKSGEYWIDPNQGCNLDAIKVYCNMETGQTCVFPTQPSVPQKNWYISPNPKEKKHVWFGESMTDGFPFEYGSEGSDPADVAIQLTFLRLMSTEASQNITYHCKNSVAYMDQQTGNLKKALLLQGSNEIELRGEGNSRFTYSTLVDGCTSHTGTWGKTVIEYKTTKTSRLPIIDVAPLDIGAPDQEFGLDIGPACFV
UniProt P02769, residues 25-607: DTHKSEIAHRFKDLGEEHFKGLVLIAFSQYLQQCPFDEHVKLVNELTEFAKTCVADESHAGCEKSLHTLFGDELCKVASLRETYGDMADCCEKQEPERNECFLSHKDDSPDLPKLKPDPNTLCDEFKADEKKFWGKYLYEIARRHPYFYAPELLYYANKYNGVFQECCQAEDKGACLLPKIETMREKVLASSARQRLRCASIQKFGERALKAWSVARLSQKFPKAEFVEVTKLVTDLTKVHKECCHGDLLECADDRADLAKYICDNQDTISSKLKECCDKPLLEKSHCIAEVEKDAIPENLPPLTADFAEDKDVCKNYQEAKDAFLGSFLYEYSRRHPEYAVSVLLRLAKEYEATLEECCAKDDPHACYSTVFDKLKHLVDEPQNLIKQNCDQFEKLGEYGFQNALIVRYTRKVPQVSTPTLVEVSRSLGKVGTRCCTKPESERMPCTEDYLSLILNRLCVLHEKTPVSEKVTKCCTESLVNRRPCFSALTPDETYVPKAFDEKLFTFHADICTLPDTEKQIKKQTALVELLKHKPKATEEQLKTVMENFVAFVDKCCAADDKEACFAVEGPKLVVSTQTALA
UniProt B6A8R8, residues 22-254: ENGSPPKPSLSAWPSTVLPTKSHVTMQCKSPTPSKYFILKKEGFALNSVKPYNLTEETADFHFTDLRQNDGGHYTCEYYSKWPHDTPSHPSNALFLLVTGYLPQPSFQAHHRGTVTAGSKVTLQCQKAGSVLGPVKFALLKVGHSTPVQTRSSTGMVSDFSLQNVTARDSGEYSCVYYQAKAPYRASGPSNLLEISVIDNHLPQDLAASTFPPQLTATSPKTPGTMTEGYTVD

Results are given in words; binding and its absence hold for the method and conditions named. Some binding calls cover weakened binding; strength is not graded here.

With “TARM1-Fc, a soluble form of TARM1 ectodomain fused with IgG Fc portion (from UniProt B6A8R8 22-254) (Fc fusion)”, the binding entry is given as “binds” with type I collagen (IC) and “no binding” in test [1].

Values taken from publication PMC7782728.
